Measurements reported in the supplement of paper PMC12823440, “Inhibitors supercharge kinase turnover through native proteolytic circuits” (Nature, 2025).
Structures can show the parent of a compound that is named as a salt. The list shows a part of the results. The calls rarely recur for the same compound in another form.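 Kinases were expressed as nanoluciferase fusions in K562 cells and luminescence was read every 4 h between 2 and 18 h as percent of control, DMSO set to 100% and a positive control to 0%. A time point counts as decreased when the signal drops significantly (2 sigma). The hit call is the authors' own, does not follow from the count of time points alone, and its rule is not shown.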

Chains of the proteins cited; added tags and fusions are not shown. Lines headed by an entry give the natural chain unless they say otherwise; changes in a name come on top.
UniProt Q06187: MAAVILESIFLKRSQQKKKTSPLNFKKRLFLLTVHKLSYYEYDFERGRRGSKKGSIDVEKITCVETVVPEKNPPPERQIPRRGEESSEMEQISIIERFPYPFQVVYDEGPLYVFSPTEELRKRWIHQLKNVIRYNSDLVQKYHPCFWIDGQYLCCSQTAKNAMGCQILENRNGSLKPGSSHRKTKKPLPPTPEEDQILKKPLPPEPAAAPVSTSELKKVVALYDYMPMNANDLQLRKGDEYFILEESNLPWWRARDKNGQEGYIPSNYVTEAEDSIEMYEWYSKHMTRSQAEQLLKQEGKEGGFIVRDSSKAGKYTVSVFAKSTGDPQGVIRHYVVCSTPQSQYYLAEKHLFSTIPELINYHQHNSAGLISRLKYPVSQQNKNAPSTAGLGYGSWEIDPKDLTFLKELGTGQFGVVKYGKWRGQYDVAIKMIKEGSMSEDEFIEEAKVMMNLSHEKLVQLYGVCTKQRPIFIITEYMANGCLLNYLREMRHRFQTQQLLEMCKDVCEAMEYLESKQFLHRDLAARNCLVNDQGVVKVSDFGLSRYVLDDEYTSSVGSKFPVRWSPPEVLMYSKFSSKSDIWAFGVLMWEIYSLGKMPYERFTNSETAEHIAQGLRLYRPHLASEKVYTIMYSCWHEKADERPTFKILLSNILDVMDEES
UniProt Q9UQM7, whole entry: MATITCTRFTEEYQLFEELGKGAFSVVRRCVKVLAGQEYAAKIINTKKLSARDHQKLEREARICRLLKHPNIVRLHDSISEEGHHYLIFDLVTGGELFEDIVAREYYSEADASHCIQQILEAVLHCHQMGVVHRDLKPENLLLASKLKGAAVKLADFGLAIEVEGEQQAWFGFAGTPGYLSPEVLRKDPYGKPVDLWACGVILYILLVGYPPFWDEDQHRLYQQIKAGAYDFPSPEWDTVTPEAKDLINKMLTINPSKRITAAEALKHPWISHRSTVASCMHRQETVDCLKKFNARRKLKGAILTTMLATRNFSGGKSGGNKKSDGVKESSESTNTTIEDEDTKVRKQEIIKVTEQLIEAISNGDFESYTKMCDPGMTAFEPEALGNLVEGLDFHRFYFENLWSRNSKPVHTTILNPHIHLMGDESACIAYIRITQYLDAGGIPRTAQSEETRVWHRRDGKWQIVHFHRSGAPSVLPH
UniProt Q13555: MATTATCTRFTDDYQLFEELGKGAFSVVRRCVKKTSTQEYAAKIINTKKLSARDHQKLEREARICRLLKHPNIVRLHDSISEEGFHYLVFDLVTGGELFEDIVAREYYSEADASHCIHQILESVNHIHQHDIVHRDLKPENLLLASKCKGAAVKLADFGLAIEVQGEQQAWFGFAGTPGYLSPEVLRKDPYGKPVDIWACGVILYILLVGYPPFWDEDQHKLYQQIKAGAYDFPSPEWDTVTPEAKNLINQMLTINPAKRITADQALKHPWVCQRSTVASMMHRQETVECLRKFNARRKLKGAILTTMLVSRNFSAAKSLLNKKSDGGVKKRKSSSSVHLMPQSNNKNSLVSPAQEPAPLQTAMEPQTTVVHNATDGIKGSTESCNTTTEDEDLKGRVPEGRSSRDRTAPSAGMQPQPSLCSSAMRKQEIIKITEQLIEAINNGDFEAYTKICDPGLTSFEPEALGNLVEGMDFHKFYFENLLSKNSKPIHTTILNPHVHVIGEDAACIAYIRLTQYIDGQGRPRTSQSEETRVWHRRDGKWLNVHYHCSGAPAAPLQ
UniProt Q15131: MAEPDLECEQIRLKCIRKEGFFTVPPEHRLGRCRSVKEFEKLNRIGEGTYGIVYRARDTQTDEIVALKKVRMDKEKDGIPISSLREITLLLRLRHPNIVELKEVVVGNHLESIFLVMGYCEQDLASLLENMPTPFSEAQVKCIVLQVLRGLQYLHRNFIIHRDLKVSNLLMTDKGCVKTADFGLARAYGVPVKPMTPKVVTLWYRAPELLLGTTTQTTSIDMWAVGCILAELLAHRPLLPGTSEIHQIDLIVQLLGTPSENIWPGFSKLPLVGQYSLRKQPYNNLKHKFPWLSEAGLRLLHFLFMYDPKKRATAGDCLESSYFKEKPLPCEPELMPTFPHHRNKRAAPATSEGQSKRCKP
UniProt Q00526: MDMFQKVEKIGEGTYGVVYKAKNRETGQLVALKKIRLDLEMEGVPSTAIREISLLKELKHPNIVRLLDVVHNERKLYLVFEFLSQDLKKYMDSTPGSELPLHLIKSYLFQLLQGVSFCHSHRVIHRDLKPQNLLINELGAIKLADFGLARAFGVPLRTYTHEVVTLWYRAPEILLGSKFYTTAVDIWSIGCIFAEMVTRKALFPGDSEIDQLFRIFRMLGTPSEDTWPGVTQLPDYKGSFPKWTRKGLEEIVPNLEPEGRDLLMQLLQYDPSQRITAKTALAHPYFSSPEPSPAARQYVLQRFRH
UniProt P11802: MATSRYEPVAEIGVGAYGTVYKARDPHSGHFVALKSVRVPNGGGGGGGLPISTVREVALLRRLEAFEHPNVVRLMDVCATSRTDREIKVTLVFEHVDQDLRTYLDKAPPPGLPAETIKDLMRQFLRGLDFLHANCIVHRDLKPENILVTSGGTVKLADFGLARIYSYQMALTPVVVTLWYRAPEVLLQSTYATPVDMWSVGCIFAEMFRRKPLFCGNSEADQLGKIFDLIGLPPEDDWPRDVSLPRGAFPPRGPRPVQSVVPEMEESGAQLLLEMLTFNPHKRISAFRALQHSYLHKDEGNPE
UniProt Q00535, whole entry, looked up: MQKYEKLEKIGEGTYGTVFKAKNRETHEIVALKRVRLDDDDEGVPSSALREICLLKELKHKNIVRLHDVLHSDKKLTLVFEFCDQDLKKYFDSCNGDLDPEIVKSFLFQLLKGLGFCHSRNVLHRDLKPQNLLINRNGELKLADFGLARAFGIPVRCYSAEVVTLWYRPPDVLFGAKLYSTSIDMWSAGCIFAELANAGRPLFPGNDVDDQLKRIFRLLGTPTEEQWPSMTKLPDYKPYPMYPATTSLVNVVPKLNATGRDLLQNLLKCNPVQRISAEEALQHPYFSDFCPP
UniProt Q00534, whole entry: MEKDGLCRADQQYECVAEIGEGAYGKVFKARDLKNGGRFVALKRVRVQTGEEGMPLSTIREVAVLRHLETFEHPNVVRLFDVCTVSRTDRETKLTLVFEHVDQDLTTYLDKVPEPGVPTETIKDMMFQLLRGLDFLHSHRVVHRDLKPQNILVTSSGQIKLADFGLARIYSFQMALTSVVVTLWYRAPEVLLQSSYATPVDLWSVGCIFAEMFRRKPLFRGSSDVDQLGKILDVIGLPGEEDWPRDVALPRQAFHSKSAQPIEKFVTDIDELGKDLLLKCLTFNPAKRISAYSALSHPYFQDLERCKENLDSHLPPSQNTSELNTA

Legend:
Assay in all cases: kinase-Nluc reporter destabilization hit call (1 = scored as downregulated) (binary); higher = compound decreases kinase abundance
Details in all cases: K562, 2-18 h
BTK = BTK (UniProt Q06187)
CAMK2A = CAMK2A (UniProt Q9UQM7)
CAMK2G = CAMK2G (UniProt Q13555)
CDK10 = CDK10 (UniProt Q15131)
CDK2 = CDK2 (UniProt P24941)
CDK3 = CDK3 (UniProt Q00526)
CDK4 = CDK4 (UniProt P11802)
CDK5 = CDK5 (UniProt Q00535)
CDK6 = CDK6 (UniProt Q00534)
BRAF_V600E = test system: BRAF_V600E

Measured: kinase-Nluc reporter destabilization hit call

Nc1ncccc1-c1nc2ccc(-c3ccccc3)nc2n1-c1ccc(C2(N)CCC2)cc1 [Miransertib]
inactive: BTK; 10 µM 0 | CAMK2A; 10 µM 0 | CAMK2G; 10 µM 0 | CDK10; 10 µM 0 | CDK2; 10 µM 0 | CDK3; 10 µM 0 | CDK4; 10 µM 0 | CDK5; 10 µM 0 | CDK6; 10 µM 0

COc1cc(N2CCC(N3CCN(C)CC3)CC2)ccc1Nc1ncc(Cl)c(Nc2ccccc2S(=O)(=O)C(C)C)n1
inactive: BRAF_V600E; 2.5 µM 0 | BTK; 2.5 µM 0 | CAMK2A; 2.5 µM 0 | CAMK2G; 2.5 µM 0 | CDK10; 2.5 µM 0 | CDK2; 2.5 µM 0 | CDK3; 2.5 µM 0 | CDK4; 2.5 µM 0 | CDK5; 2.5 µM 0 | CDK6; 2.5 µM 0

Cc1cc(Nc2cc(N3CCN(C)CC3)nc(/C=C/c3ccccc3)n2)n[nH]1 [ENMD-2076 (Tartrate)]
inactive: BRAF_V600E; 2.5 µM 0 | BTK; 2.5 µM 0 | CAMK2A; 2.5 µM 0 | CAMK2G; 2.5 µM 0 | CDK10; 2.5 µM 0 | CDK2; 2.5 µM 0 | CDK3; 2.5 µM 0 | CDK4; 2.5 µM 0 | CDK5; 2.5 µM 0 | CDK6; 2.5 µM 0

C[C@H]1Oc2cc(cnc2N)-c2c(nn(C)c2C#N)CN(C)C(=O)c2ccc(F)cc21 [Lorlatinib]
inactive: BRAF_V600E; 10 µM 0 | BTK; 10 µM 0 | CAMK2A; 10 µM 0 | CAMK2G; 10 µM 0 | CDK10; 10 µM 0 | CDK2; 10 µM 0 | CDK3; 10 µM 0 | CDK4; 10 µM 0 | CDK5; 10 µM 0 | CDK6; 10 µM 0

Pulled one by one from above (two):
COc1cc(N2CCC(N3CCN(C)CC3)CC2)ccc1Nc1ncc(Cl)c(Nc2ccccc2S(=O)(=O)C(C)C)n1
inactive: BRAF_V600E; 2.5 µM 0 | BTK; 2.5 µM 0 | CAMK2A; 2.5 µM 0 | CAMK2G; 2.5 µM 0 | CDK10; 2.5 µM 0 | CDK2; 2.5 µM 0 | CDK3; 2.5 µM 0 | CDK4; 2.5 µM 0 | CDK5; 2.5 µM 0 | CDK6; 2.5 µM 0

Nc1ncccc1-c1nc2ccc(-c3ccccc3)nc2n1-c1ccc(C2(N)CCC2)cc1 [Miransertib]
inactive: BTK; 10 µM 0 | CAMK2A; 10 µM 0 | CAMK2G; 10 µM 0 | CDK10; 10 µM 0 | CDK2; 10 µM 0 | CDK3; 10 µM 0 | CDK4; 10 µM 0 | CDK5; 10 µM 0 | CDK6; 10 µM 0

Continued.

Nc1ncnc2n[nH]c(-c3ccc(Oc4ccccc4)cc3)c12 [Ibrutinib deacryloylpiperidine]
inactive: BRAF_V600E; 10 µM 0 | BTK; 10 µM 0 | CAMK2A; 10 µM 0 | CAMK2G; 10 µM 0 | CDK10; 10 µM 0 | CDK2; 10 µM 0 | CDK3; 10 µM 0 | CDK4; 10 µM 0 | CDK5; 10 µM 0 | CDK6; 10 µM 0

O=C(NCCCNc1nc(Nc2cccc(CN3CCOCC3)c2)ncc1C1CC1)C1CCC1
inactive: BRAF_V600E; 10 µM 0 | BTK; 10 µM 0 | CAMK2A; 10 µM 0 | CAMK2G; 10 µM 0 | CDK10; 10 µM 0 | CDK2; 10 µM 0 | CDK3; 10 µM 0 | CDK4; 10 µM 0 | CDK5; 10 µM 0 | CDK6; 10 µM 0

CC(C)[C@@](C)(O)[C@@H]1CN(c2nc(-c3[nH]nc4ncccc34)c(F)cc2Cl)CCN1
inactive: BRAF_V600E; 10 µM 0 | BTK; 10 µM 0 | CAMK2A; 10 µM 0 | CAMK2G; 10 µM 0 | CDK10; 10 µM 0 | CDK2; 10 µM 0 | CDK3; 10 µM 0 | CDK4; 10 µM 0 | CDK5; 10 µM 0 | CDK6; 10 µM 0

O=S(=O)(c1cccc2c(O)nccc12)N1CCCNCC1 [Hydroxyfasudil (hydrochloride)]
inactive: BRAF_V600E; 10 µM 0 | BTK; 10 µM 0 | CAMK2A; 10 µM 0 | CAMK2G; 10 µM 0 | CDK10; 10 µM 0 | CDK2; 10 µM 0 | CDK3; 10 µM 0 | CDK4; 10 µM 0 | CDK5; 10 µM 0 | CDK6; 10 µM 0

C=CC(=O)N1CCC([C@@H]2CCNc3c(C(N)=O)c(-c4ccc(Oc5ccccc5)cc4)nn32)CC1 [Zanubrutinib]
inactive: BRAF_V600E; 10 µM 0 | CAMK2A; 10 µM 0 | CAMK2G; 10 µM 0 | CDK10; 10 µM 0 | CDK2; 10 µM 0 | CDK3; 10 µM 0 | CDK4; 10 µM 0 | CDK5; 10 µM 0 | CDK6; 10 µM 0

CC1(C)C(=O)N([C@H]2CCc3c(O)cccc32)c2nc(Nc3cccc(CN4CCCC4)c3)ncc21
inactive: BRAF_V600E; 2.5 µM 0 | BTK; 2.5 µM 0 | CAMK2A; 2.5 µM 0 | CAMK2G; 2.5 µM 0 | CDK10; 2.5 µM 0 | CDK2; 2.5 µM 0 | CDK3; 2.5 µM 0 | CDK4; 2.5 µM 0 | CDK5; 2.5 µM 0 | CDK6; 2.5 µM 0

CC#CC(=O)N1CCC[C@H]1c1nc(-c2ccc(C(=O)Nc3ccccn3)cc2)c2c(N)nccn12 [Acalabrutinib]
inactive: BRAF_V600E; 10 µM 0 | BTK; 10 µM 0 | CAMK2A; 10 µM 0 | CAMK2G; 10 µM 0 | CDK10; 10 µM 0 | CDK2; 10 µM 0 | CDK3; 10 µM 0 | CDK4; 10 µM 0 | CDK5; 10 µM 0 | CDK6; 10 µM 0

Nc1ncnc2c1c(-c1cnc3[nH]ccc3c1)nn2C1CCCC1
inactive: BRAF_V600E; 2.5 µM 0 | CAMK2A; 2.5 µM 0 | CAMK2G; 2.5 µM 0 | CDK10; 2.5 µM 0 | CDK2; 2.5 µM 0 | CDK3; 2.5 µM 0 | CDK4; 2.5 µM 0 | CDK5; 2.5 µM 0 | CDK6; 2.5 µM 0

CCN(CC)CCNC(=O)c1c(C)[nH]c(/C=C2\C(=O)Nc3ccc(F)cc32)c1C [Sunitinib]
inactive: BRAF_V600E; 2.5 µM 0 | BTK; 2.5 µM 0 | CAMK2A; 2.5 µM 0 | CAMK2G; 2.5 µM 0 | CDK10; 2.5 µM 0 | CDK3; 2.5 µM 0 | CDK4; 2.5 µM 0 | CDK6; 2.5 µM 0

CN1CCN(c2ccc3nc(-c4c(N)c5c(F)cccc5[nH]c4=O)[nH]c3c2)CC1 [Dovitinib (lactate)]
inactive: BRAF_V600E; 2.5 µM 0 | BTK; 2.5 µM 0 | CAMK2A; 2.5 µM 0 | CAMK2G; 2.5 µM 0 | CDK10; 2.5 µM 0 | CDK2; 2.5 µM 0 | CDK3; 2.5 µM 0 | CDK4; 2.5 µM 0 | CDK6; 2.5 µM 0

Cc1cc(Nc2cc(N3CCN(C)CC3)nc(/C=C/c3ccccc3)n2)n[nH]1
inactive: BRAF_V600E; 2.5 µM 0 | BTK; 2.5 µM 0 | CAMK2A; 2.5 µM 0 | CAMK2G; 2.5 µM 0 | CDK10; 2.5 µM 0 | CDK2; 2.5 µM 0 | CDK3; 2.5 µM 0 | CDK4; 2.5 µM 0 | CDK5; 2.5 µM 0 | CDK6; 2.5 µM 0

C[C@@]1(C(=O)Nc2ccc(F)nc2)CCCN1c1nc(Nc2cc(C3CC3)n[nH]2)c2cccn2n1
inactive: BTK; 10 µM 0 | CAMK2A; 10 µM 0 | CAMK2G; 10 µM 0 | CDK10; 10 µM 0 | CDK2; 10 µM 0 | CDK3; 10 µM 0 | CDK4; 10 µM 0 | CDK5; 10 µM 0 | CDK6; 10 µM 0

N#CC(=Cc1cc(Cl)cc(Cl)c1)c1cccnc1
inactive: BTK; 10 µM 0 | CAMK2G; 10 µM 0 | CDK2; 10 µM 0 | CDK4; 10 µM 0 | CDK5; 10 µM 0 | CDK6; 10 µM 0

O=C1NCCc2[nH]c(-c3ccncc3)cc21
inactive: BRAF_V600E; 2.5 µM 0 | CAMK2A; 2.5 µM 0 | CAMK2G; 2.5 µM 0 | CDK10; 2.5 µM 0 | CDK2; 2.5 µM 0 | CDK3; 2.5 µM 0 | CDK4; 2.5 µM 0 | CDK5; 2.5 µM 0 | CDK6; 2.5 µM 0

O=C(c1ccc(/C=C/c2n[nH]c3ccccc23)cc1)N1CCNCC1
inactive: BRAF_V600E; 2.5 µM 0 | BTK; 2.5 µM 0 | CAMK2A; 2.5 µM 0 | CAMK2G; 2.5 µM 0 | CDK10; 2.5 µM 0 | CDK3; 2.5 µM 0 | CDK4; 2.5 µM 0 | CDK5; 2.5 µM 0 | CDK6; 2.5 µM 0

Cc1[nH]c(/C=C2\C(=O)Nc3ccc(F)cc32)c(C)c1C(=O)NC[C@H](O)CN1CCOCC1
active: CDK6; 2.5 µM 1
inactive: BRAF_V600E; 2.5 µM 0 | BTK; 2.5 µM 0 | CAMK2A; 2.5 µM 0 | CAMK2G; 2.5 µM 0 | CDK10; 2.5 µM 0 | CDK2; 2.5 µM 0 | CDK3; 2.5 µM 0 | CDK4; 2.5 µM 0 | CDK5; 2.5 µM 0

O=C(Nc1cccc(Nc2nccc(Nc3cccc(C(F)(F)F)c3)n2)c1)C1CC1 [Aurora kinase inhibitor-3]
inactive: BRAF_V600E; 2.5 µM 0 | BTK; 2.5 µM 0 | CAMK2A; 2.5 µM 0 | CAMK2G; 2.5 µM 0 | CDK10; 2.5 µM 0 | CDK2; 2.5 µM 0 | CDK3; 2.5 µM 0 | CDK4; 2.5 µM 0 | CDK5; 2.5 µM 0 | CDK6; 2.5 µM 0

Cc1cc2ncnn2cc1Nc1ncc2c(n1)n(C1CCOCC1)c(=O)n2C
inactive: BRAF_V600E; 10 µM 0 | BTK; 10 µM 0 | CAMK2A; 10 µM 0 | CDK10; 10 µM 0 | CDK2; 10 µM 0 | CDK3; 10 µM 0 | CDK4; 10 µM 0 | CDK5; 10 µM 0 | CDK6; 10 µM 0

CN1CCN(c2ccc3nc(-c4c(N)c5c(F)cccc5[nH]c4=O)[nH]c3c2)CC1 [Dovitinib]
inactive: BRAF_V600E; 2.5 µM 0 | BTK; 2.5 µM 0 | CAMK2A; 2.5 µM 0 | CAMK2G; 2.5 µM 0 | CDK10; 2.5 µM 0 | CDK2; 2.5 µM 0 | CDK3; 2.5 µM 0 | CDK4; 2.5 µM 0 | CDK6; 2.5 µM 0

CC[C@@H]1C(=O)N(C)c2cnc(Nc3ccc(C(=O)NC4CCN(C)CC4)cc3OC)nc2N1C1CCCC1
inactive: CAMK2A; 10 µM 0 | CAMK2G; 10 µM 0 | CDK10; 10 µM 0 | CDK2; 10 µM 0 | CDK3; 10 µM 0 | CDK4; 10 µM 0 | CDK5; 10 µM 0 | CDK6; 10 µM 0
